We go through nine substances from patent US20100093618A1.

By UniProt entry, the sequences of proteins in these tests, tags left out. Where a name states a change or a piece, a line headed by the entry shows the natural chain unless it says otherwise. Chains listed by the source or under a name are the forms on record and can include a tag or linker.
UniProt P04608: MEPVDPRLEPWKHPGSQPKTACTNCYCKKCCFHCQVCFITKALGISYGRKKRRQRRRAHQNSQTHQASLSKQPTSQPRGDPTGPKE
UniProt P25963: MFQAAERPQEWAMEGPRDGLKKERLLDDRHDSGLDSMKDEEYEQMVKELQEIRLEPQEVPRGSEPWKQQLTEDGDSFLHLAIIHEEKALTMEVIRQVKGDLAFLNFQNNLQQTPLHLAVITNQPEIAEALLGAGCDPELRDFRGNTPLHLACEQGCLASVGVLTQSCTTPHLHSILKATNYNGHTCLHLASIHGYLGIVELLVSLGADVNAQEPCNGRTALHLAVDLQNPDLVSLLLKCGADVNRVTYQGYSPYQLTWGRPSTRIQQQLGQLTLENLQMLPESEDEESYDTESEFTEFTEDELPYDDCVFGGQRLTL
[35S]methionine-labeled IκB-α 72-287 L(272,274,277)A (in vitro translated) (P25963, form named): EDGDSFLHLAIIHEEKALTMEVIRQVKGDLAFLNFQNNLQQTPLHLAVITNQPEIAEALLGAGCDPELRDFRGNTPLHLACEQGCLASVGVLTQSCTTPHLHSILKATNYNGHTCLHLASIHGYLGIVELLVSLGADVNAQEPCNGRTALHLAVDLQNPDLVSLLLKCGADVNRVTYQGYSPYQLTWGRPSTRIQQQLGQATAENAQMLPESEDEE
[35S]methionine-labeled IκB-α N/C NES (in vitro translated) (P25963, form named): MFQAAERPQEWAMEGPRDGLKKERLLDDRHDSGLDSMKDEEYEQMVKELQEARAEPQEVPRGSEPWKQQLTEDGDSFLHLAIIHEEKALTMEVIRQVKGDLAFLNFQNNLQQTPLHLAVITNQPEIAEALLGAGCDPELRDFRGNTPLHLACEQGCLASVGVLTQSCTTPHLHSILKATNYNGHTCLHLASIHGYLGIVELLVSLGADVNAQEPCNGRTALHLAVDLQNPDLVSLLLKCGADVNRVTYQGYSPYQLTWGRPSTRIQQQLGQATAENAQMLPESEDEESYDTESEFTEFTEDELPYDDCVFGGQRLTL

Test [1] has as its target FLAG-Tat (p3XFLAG-CMV-Tat, wild type) (HIV-1) (UniProt P04608). The test can be described thus: GST-IκB-α pulldown from extracts of transfected HeLa cells, anti-FLAG Western blot. A general note: Immunoblotting shows a protein as a band on a membrane.
Test [2] has as its target GST-Tat (HIV-1) (UniProt P04608). The test can be described thus: summary of the GST-Tat pulldown results (FIG. 9A).
The target is the same in test [3]. The test can be described thus: GST-Tat pulldown of [35S]-labeled in vitro translated protein, autoradiography.
Test [4] has the same target. As to the kind of experiment: GST-Tat pulldown from HeLa cell extracts, anti-IκB-α (C-15) Western blot.

Results are given in words; binding and its absence hold for the method and conditions named. Binding seen in cells or lysates may run through a third protein. Some results given as binding are weak or reduced against the parent protein; the word gives no strength.

For GST-IκB-α (from UniProt P25963 1-317), the binding entry in test [1] is given as “binds”.
Take “[35S]methionine-labeled IκB-α 1-269 (in vitro translated) (from UniProt P25963 1-269)”: the binding entry with GST-Tat (HIV-1) [2] and with GST-Tat (HIV-1) [3] was “binds” in each case.
Take “[35S]methionine-labeled IκB-α 1-317 (in vitro translated) (from UniProt P25963 1-317)”: the binding entry in the test with GST-Tat (HIV-1) [3] is listed as “binds”.
On the same count and under the same terms, for “[35S]methionine-labeled IκB-α 72-287 (in vitro translated) (from UniProt P25963 72-287)” the value was “binds”; for “[35S]methionine-labeled IκB-α 72-287 L(272,274,277)A (in vitro translated) (from UniProt P25963 72-287)”, “binds”.
Take “[35S]methionine-labeled IκB-α 120-317 (in vitro translated) (from UniProt P25963 120-317)”: the binding result in the test with GST-Tat (HIV-1) [2] and with GST-Tat (HIV-1) [3] was “binds” in each case.
“[35S]methionine-labeled IκB-α 243-317 (in vitro translated) (from UniProt P25963 243-317)”: in the test with GST-Tat (HIV-1) [3], the binding result is “binds”.
Same read-out and setting: for “[35S]methionine-labeled IκB-α N/C NES (in vitro translated) (from UniProt P25963 1-317)” the value was “binds”.
Regarding “endogenous IκB-α (HeLa cell extracts) (from UniProt P25963 1-317)”, in the test with GST-Tat (HIV-1) [4], the binding result is “binds”.
